This assay relates to L1210 leukemia ip in BDF1 mice, survival T/C. Description: NCI In Vivo Anticancer Drug Screen. Data for tumor model L1210 Leukemia (intraperitoneal) in B6D2F1 (BDF1) mice. Particulars: T/C endpoint: mean survival time, higher T/C = longer survival.
Where [1] appears, read: dose: 25.0 mg/kg/injection, schedule: Q04DX002 (ip), vehicle: Klucel (hydroxypropylcellulose) (HPC).
Setting [2] is: dose: 50.0 mg/kg/injection, schedule: Q04DX002 (ip), vehicle: Klucel (hydroxypropylcellulose) (HPC).
Where [3] appears, read: dose: 100.0 mg/kg/injection, schedule: Q04DX002 (ip), vehicle: Klucel (hydroxypropylcellulose) (HPC).
The mark [4] stands for this setting: dose: 200.0 mg/kg/injection, schedule: Q04DX002 (ip), vehicle: Klucel (hydroxypropylcellulose) (HPC).
The mark [5] stands for this setting: dose: 400.0 mg/kg/injection, schedule: Q04DX002 (ip), vehicle: Klucel (hydroxypropylcellulose) (HPC).
Setting [6] is: dose: 400.0 mg/kg/injection, schedule: Q01DX001 (ip), vehicle: saline.
The mark [7] stands for this setting: dose: 400.0 mg/kg/injection, schedule: Q04DX003 (ip), vehicle: other.
The mark [8] stands for this setting: dose: 400.0 mg/kg/injection, schedule: Q04DX003 (ip), vehicle: Klucel (hydroxypropylcellulose) (HPC).
The mark [9] stands for this setting: dose: 200.0 mg/kg/injection, schedule: Q01DX009 (ip), vehicle: Klucel (hydroxypropylcellulose) (HPC).
Where [10] appears, read: dose: 200.0 mg/kg/injection, schedule: Q01DX001 (ip), vehicle: saline.
Setting [11] is: dose: 400.0 mg/kg/injection, schedule: Q04DX003 (ip), vehicle: saline.
Where [12] appears, read: dose: 50.0 mg/kg/injection, schedule: Q01DX009 (ip), vehicle: Klucel (hydroxypropylcellulose) (HPC).

The list is a part of this screen's results and no random one: it is rich in T/C values a quarter to a half above the control, in often repeated tests (any T/C) and in doses without a T/C. Other doses and runs of a compound stand elsewhere. T/C: endpoint of the treated group in % of that of the vehicle group. Some doses have a count of surviving animals in place of a T/C: the source files T/C as zero there, which appears to mark a toxic dose or a test without result, not a measured value. Some survivor counts are full or nearly so, which does not show that the dose was tolerated: the source hardly ever lists a survival T/C far under the control, and the zero likely stands for such cases as well. Counts of survivors are from the toxicity check (mostly the fifth day) where no day follows; animals may have died later. Schedules are NCI's codes, read here as Q, the interval in days (D) or hours (H), X, the number of doses. Some schedules carry Z or #; the key to these is not given. Where survival is the endpoint, the PubChem record calls one and a half times the control and up active, and a quarter to a half above the control has no call in these data; cut-offs in other NCI protocols can differ. Some entries were tested several times; the results are listed from low to high. Some T/C values are followed by the survivors on the day toxicity was checked, most often the fifth; where none is given, no animal had died by that day.

On to `CC12CC3CC(Br)(C1)CC(C#N)(C3)C2` (stereo not given), for which the survivor count is, setting by setting: under setting [1], 3 of 3; under setting [2], 3 of 3; under setting [3], 0 of 3; under setting [4], 0 of 3; under setting [5], 0 of 3.
Consider `Cc1ccc2[nH]c(O)c(N=Nc3ccccc3[N+](=O)[O-])c2c1`, for which the survivor count under setting [6] is on record as 6 of 6.
In the case of `CC(C)c1ccc(/C(=N\NC(N)=S)C2CC2)cc1`, the survivor count is, setting by setting: (dose: 15.0 mg/kg/injection, schedule: Q01DX Z (ip), vehicle: methylcellulose (MC)) 0 of 6; (dose: 30.0 mg/kg/injection, schedule: Q01DX Z (ip), vehicle: methylcellulose (MC)) 0 of 6; (dose: 60.0 mg/kg/injection, schedule: Q01DX Z (ip), vehicle: methylcellulose (MC)) 0 of 6; (dose: 120.0 mg/kg/injection, schedule: Q01DX Z (ip), vehicle: methylcellulose (MC)) 0 of 6.
For the molecule `CCCCC1C(=O)N=C2C=CC=CN2C1=O` (stereo not given), the survivor count under setting [7] is 0 of 6.
With `C/C(=C1/SC(=S)NC1=O)c1ccccc1O`, the survivor count under setting [6] was 2 of 4.
On to `CCN1C(=O)CC(=O)N(CC)C1=S`, for which the survivor count under setting [8] is listed as 2 of 6.
`OCC(O)COc1ccc(OCc2ccccc2)cc1` (stereo not given): the survivor count is on record as 6 of 6 (dose: 100.0 mg/kg/injection, schedule: Q01DX009 (ip), vehicle: Klucel (hydroxypropylcellulose) (HPC)) and 6 of 6 under setting [9].
For `O=C(C[n+]1ccccc1)c1ccc(Br)cc1`, the survivor count is, setting by setting: (dose: 25.0 mg/kg/injection, schedule: Q01DX009 (ip), vehicle: saline) 3 of 6; under setting [10], 0 of 6; (dose: 200.0 mg/kg/injection, schedule: Q01DX009 (ip), vehicle: saline) 0 of 6; under setting [6], 1 of 6; (dose: 400.0 mg/kg/injection, schedule: Q01DX009 (ip), vehicle: saline) 0 of 6.
Consider `CC(=O)Nc1ccc(S(=O)(=O)NC(C)=O)cc1`, for which the survivor count (dose: 200.0 mg/kg/injection, schedule: Q01DX009 (ip), vehicle: saline with Tween-80) is 6 of 6.
For `CCOc1ccc2nc(N)sc2c1`, the survivor count under setting [11] is 0 of 6.
As for `CNC(=O)Oc1ccc(SC)c(C)c1`, the survivor count (dose: 3.0 mg/kg/injection, schedule: Q01DX009 (ip), vehicle: Klucel (hydroxypropylcellulose) (HPC)) is 0 of 3; the survivor count (dose: 6.0 mg/kg/injection, schedule: Q01DX009 (ip), vehicle: Klucel (hydroxypropylcellulose) (HPC)) is 0 of 3; the survivor count (dose: 12.5 mg/kg/injection, schedule: Q04DX002 (ip), vehicle: Klucel (hydroxypropylcellulose) (HPC)) is listed as 1 of 3; the survivor count (dose: 20.0 mg/kg/injection, schedule: Q01DX001 (ip), vehicle: carboxymethylcellulose (CMC)) was 2 of 4; the survivor count under setting [1] is given as 0 of 3; the survivor count (dose: 40.0 mg/kg/injection, schedule: Q01DX001 (ip), vehicle: carboxymethylcellulose (CMC)) is recorded as 0 of 4. Moreover, the survivor count runs as follows: under setting [2], 0 of 3; (dose: 80.0 mg/kg/injection, schedule: Q01DX001 (ip), vehicle: carboxymethylcellulose (CMC)) 0 of 4; (dose: 100.0 mg/kg/injection, schedule: Q01DX001 (ip), vehicle: carboxymethylcellulose (CMC)) 1 of 4; under setting [3], 0 of 3; (dose: 200.0 mg/kg/injection, schedule: Q01DX001 (ip), vehicle: carboxymethylcellulose (CMC)) 0 of 4; under setting [4], 0 of 3. Also, the survivor count is recorded as 0 of 4 (dose: 400.0 mg/kg/injection, schedule: Q01DX001 (ip), vehicle: carboxymethylcellulose (CMC)) and 0 of 3 under setting [5].
As for `CC(=O)CC(C)(C)N`, under “dose: 400.0 mg/kg/injection, schedule: Q04DX003 (ip), vehicle: saline with Tween-80”, the survivor count is listed as 2 of 6.
On to `O=C1c2cccc(Cl)c2C(=O)c2c(Cl)cccc21`, for which the survivor count under setting [4] is recorded as 3 of 3.
On to `CN(C)CC1(C)CCc2c(ccc3ccccc23)C1O` (stereo not given), for which the survivor count is 1 of 6 (dose: 200.0 mg/kg/injection, schedule: Q01DX001 (ip), vehicle: Klucel (hydroxypropylcellulose) (HPC)) and 0 of 6 (dose: 400.0 mg/kg/injection, schedule: Q01DX001 (ip), vehicle: Klucel (hydroxypropylcellulose) (HPC)).
As for `O=C(O)CCC(=O)Oc1ccccc1`, under setting [7], the survivor count is 1 of 6.
As for `CCCCOC(=O)C(N)Cc1ccc(OC)c(N(CCCl)CCCl)c1` (stereo not given), the survivor count is 5 of 6 (dose: 1.2 mg/kg/injection, schedule: Q01DX009 (ip), vehicle: saline); 6 of 6 (dose: 4.5 mg/kg/injection, schedule: Q01DX009 (ip), vehicle: saline); 3 of 6 (dose: 12.0 mg/kg/injection, schedule: Q01DX001 (ip), vehicle: saline); 5 of 6 (dose: 12.5 mg/kg/injection, schedule: Q01DX001 (ip), vehicle: saline); 2 of 6 (dose: 24.0 mg/kg/injection, schedule: Q01DX009 (ip), vehicle: saline); 2 of 6 (dose: 25.0 mg/kg/injection, schedule: Q01DX001 (ip), vehicle: saline). For the same molecule, the survivor count by setting is: (dose: 36.0 mg/kg/injection, schedule: Q01DX009 (ip), vehicle: saline) 0 of 6; (dose: 48.0 mg/kg/injection, schedule: Q01DX001 (ip), vehicle: saline) 3 of 6; (dose: 50.0 mg/kg/injection, schedule: Q01DX001 (ip), vehicle: saline) 0 of 6; (dose: 96.0 mg/kg/injection, schedule: Q01DX001 (ip), vehicle: saline) 0 of 6; (dose: 100.0 mg/kg/injection, schedule: Q01DX001 (ip), vehicle: saline) 0 of 6; under setting [10], 0 of 6. Also, the survivor count under setting [6] was 0 of 6. The T/C is 131 and 138 % of control (dose: 3.0 mg/kg/injection, schedule: Q01DX001 (ip), vehicle: saline); 126 % of control (dose: 4.0 mg/kg/injection, schedule: Q01DX001 (ip), vehicle: saline); 136 % of control [5 of 6 alive] (dose: 6.0 mg/kg/injection, schedule: Q01DX001 (ip), vehicle: saline); 141 % of control (dose: 9.0 mg/kg/injection, schedule: Q01DX001 (ip), vehicle: saline); 145 % of control (dose: 24.0 mg/kg/injection, schedule: Q01DX001 (ip), vehicle: saline).
On to `CCCCCCc1cc(CN(C2CCCCC2)C2CCCCC2)c(O)cc1O`, for which the survivor count under setting [10] was 6 of 6.
Same read-out and setting: the same measure for `CC1(/C=N\NC(=O)CCCC(=O)N/N=C/C2(C)CCC=CO2)CCC=CO1` (stereo not given): 4 of 4.
`Clc1ccc(-c2nn[nH]n2)cc1`: the survivor count under setting [5] is 1 of 3.
Consider `CC(C)(C)OC(=O)NCC(=O)O`, for which the survivor count under setting [11] is listed as 2 of 6.
Regarding `CC1(C)C(=NNc2ccccc2)C(C)(C)C1=NNc1ccccc1`, the survivor count by setting is: under setting [12], 6 of 6; under setting [9], 5 of 6; (dose: 400.0 mg/kg/injection, schedule: Q01DX009 (ip), vehicle: Klucel (hydroxypropylcellulose) (HPC)) 6 of 6.
As to `O=C(NCCCl)Nc1ccc2c3c(cccc13)CC2`, the survivor count runs as follows: under setting [12], 6 of 6; (dose: 100.0 mg/kg/injection, schedule: Q04DX003 (ip), vehicle: Klucel (hydroxypropylcellulose) (HPC)) 4 of 6; under setting [9], 0 of 6; under setting [8], 3 of 6.

The record behind these values is PubChem BioAssay AID248 (DTP/NCI, 2004).
